Data on one molecule can be found in doi:10.1101/674218 (bioRxiv, 2019).

Results are given in words; binding and its absence hold for the method and conditions named. In cells and extracts the contact can be indirect. Some results given as binding are weak or reduced against the parent protein; the word gives no strength. Sequences can lack the tags named with a protein.

The assay concerns the target T1, triggering receptor expressed on myeloid cells-1 (TREM-1) on RAW264.7 macrophages (mouse (endogenous in RAW264.7)) (UniProt Q9JKE2).
T1 sequence: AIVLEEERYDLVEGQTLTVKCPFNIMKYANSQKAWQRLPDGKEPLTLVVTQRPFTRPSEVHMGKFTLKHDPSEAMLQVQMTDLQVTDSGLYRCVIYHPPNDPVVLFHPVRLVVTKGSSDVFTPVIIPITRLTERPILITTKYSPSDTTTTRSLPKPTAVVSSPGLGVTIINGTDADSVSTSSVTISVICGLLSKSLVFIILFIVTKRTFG
Description: FRET or BRET. (In BRET a luciferase serves as donor, and the signal depends on an acceptor being close.)

B1: recombinant murine cold-inducible RNA-binding protein, His-tagged (rmCIRP-his) (natural protein, mouse, UniProt P60824 1-172, looked up)
chain: MASDEGKLFVGGLSFDTNEQALEQVFSKYGQISEVVVVKDRETQRSRGFGFVTFENIDDAKDAMMAMNGKSVDGRQIRVDQAGKSSDNRSRGYRGGSAGGRGFFRGGRSRGRGFSRGGGDRGYGGGRFESRSGGYGGSRDYYASRSQGGSYGYRSSGGSYRDSYDSYATHNE
B1: the binding result is “binds”.
